The list is a part of this screen's results and no random one: it gathers some chemical classes. Other doses and runs of a compound may be missing. T/C is the treated group as % of the vehicle group. For survival time, this PubChem deposit counts one and a half times the control or more as active, and values a quarter to a half above the control carry no call in these data; other NCI protocols may use other cut-offs. Some entries show no survivor count and are marked so; the dose need not have been tolerated. Schedules are NCI's codes, taken here to give the interval after Q, in days (D) or hours (H), and the number of doses after X. Some doses were run more than once; the values are given in rising order. Some schedule codes hold Z or #, which are not explained here.
System: L1210 leukemia ip in BDF1 mice, survival T/C
Assay: NCI In Vivo Anticancer Drug Screen. Data for tumor model L1210 Leukemia (intraperitoneal) in B6D2F1 (BDF1) mice
Details: T/C endpoint: mean survival time, higher T/C = longer survival

O=CCCCc1ccc(N(CCCl)CCCl)cc1
T/C (dose: 1.0 mg/kg/injection, schedule: Q12HX018 (ip), vehicle: Klucel (hydroxypropylcellulose) (HPC)): 104 % of control [survivor count not shown] | T/C (dose: 1.0 mg/kg/injection, schedule: Q12HX018 (sc), vehicle: olive oil, sesame oil, peanut oil): 109 % of control [survivor count not shown] | T/C (dose: 2.0 mg/kg/injection, schedule: Q12HX018 (ip), vehicle: Klucel (hydroxypropylcellulose) (HPC)): 106 % of control [survivor count not shown] | T/C (dose: 2.0 mg/kg/injection, schedule: Q12HX018 (ip), vehicle: acetone): 120 % of control [survivor count not shown] | T/C (dose: 2.0 mg/kg/injection, schedule: Q12HX018 (sc), vehicle: olive oil, sesame oil, peanut oil): 106 % of control [survivor count not shown] | T/C (dose: 3.9 mg/kg/injection, schedule: Q12HX018 (ip), vehicle: Klucel (hydroxypropylcellulose) (HPC)): 105 % of control [survivor count not shown] | T/C (dose: 4.0 mg/kg/injection, schedule: Q12HX018 (ip), vehicle: Klucel (hydroxypropylcellulose) (HPC)): 89 [survivor count not shown] and 93 % of control [survivor count not shown] | T/C (dose: 4.0 mg/kg/injection, schedule: Q12HX018 (ip), vehicle: acetone): 122 % of control [survivor count not shown] | T/C (dose: 4.0 mg/kg/injection, schedule: Q12HX018 (sc), vehicle: olive oil, sesame oil, peanut oil): 115 % of control [survivor count not shown] | T/C (dose: 6.0 mg/kg/injection, schedule: Q12HX018 (ip), vehicle: Klucel (hydroxypropylcellulose) (HPC)): 94 [survivor count not shown], 104 [survivor count not shown], 108 % of control [survivor count not shown] | T/C (dose: 6.0 mg/kg/injection, schedule: Q12HX018 (ip), vehicle: acetone): 156 % of control [survivor count not shown] | T/C (dose: 6.0 mg/kg/injection, schedule: Q12HX018 (sc), vehicle: olive oil, sesame oil, peanut oil): 131 % of control [survivor count not shown] | T/C (dose: 8.0 mg/kg/injection, schedule: Q12HX018 (ip), vehicle: Klucel (hydroxypropylcellulose) (HPC)): 94 [survivor count not shown] and 101 % of control [survivor count not shown] | T/C (dose: 8.0 mg/kg/injection, schedule: Q12HX018 (ip), vehicle: acetone): 88 % of control [survivor count not shown] | T/C (dose: 8.0 mg/kg/injection, schedule: Q12HX018 (sc), vehicle: olive oil, sesame oil, peanut oil): 129 % of control [survivor count not shown] | T/C (dose: 9.0 mg/kg/injection, schedule: Q12HX018 (ip), vehicle: Klucel (hydroxypropylcellulose) (HPC)): 111 % of control [survivor count not shown] | T/C (dose: 10.0 mg/kg/injection, schedule: Q12HX018 (ip), vehicle: Klucel (hydroxypropylcellulose) (HPC)): 106 % of control [survivor count not shown] | T/C (dose: 10.0 mg/kg/injection, schedule: Q12HX018 (sc), vehicle: olive oil, sesame oil, peanut oil): 128 % of control [survivor count not shown] | T/C (dose: 12.0 mg/kg/injection, schedule: Q12HX018 (ip), vehicle: Klucel (hydroxypropylcellulose) (HPC)): 114 % of control [survivor count not shown] | T/C (dose: 12.0 mg/kg/injection, schedule: Q12HX018 (sc), vehicle: olive oil, sesame oil, peanut oil): 107 % of control [survivor count not shown] | T/C (dose: 13.0 mg/kg/injection, schedule: Q12HX018 (ip), vehicle: Klucel (hydroxypropylcellulose) (HPC)): 126 % of control [survivor count not shown] | T/C (dose: 20.0 mg/kg/injection, schedule: Q12HX018 (ip), vehicle: Klucel (hydroxypropylcellulose) (HPC)): 112 % of control [survivor count not shown] | T/C (dose: 30.0 mg/kg/injection, schedule: Q12HX018 (ip), vehicle: Klucel (hydroxypropylcellulose) (HPC)): 129 % of control [survivor count not shown]

Cn1c(=O)[nH]cc(N(CCCl)CCCl)c1=O
T/C (dose: 0.6 mg/kg/injection, schedule: Q01DX Z (ip), vehicle: methylcellulose (MC)): 107 % of control [survivor count not shown] | T/C (dose: 0.63 mg/kg/injection, schedule: Q01DX Z (ip), vehicle: methylcellulose (MC)): 122 % of control [survivor count not shown] | T/C (dose: 1.0 mg/kg/injection, schedule: Q01DX Z (ip), vehicle: methylcellulose (MC)): 137 % of control [survivor count not shown] | T/C (dose: 1.25 mg/kg/injection, schedule: Q01DX Z (ip), vehicle: methylcellulose (MC)): 127 % of control [survivor count not shown] | T/C (dose: 1.5 mg/kg/injection, schedule: Q01DX Z (ip), vehicle: methylcellulose (MC)): 155 % of control [survivor count not shown] | T/C (dose: 2.3 mg/kg/injection, schedule: Q01DX Z (ip), vehicle: methylcellulose (MC)): 86 % of control [survivor count not shown] | T/C (dose: 2.5 mg/kg/injection, schedule: Q01DX Z (ip), vehicle: methylcellulose (MC)): 151 % of control [survivor count not shown]

CCN(CC)P(=O)(OC)N(CCCl)CCCl (configuration not stated)
T/C (dose: 100.0 mg/kg/injection, schedule: Q01DX001 (ip), vehicle: DMSO): 103 % of control [survivor count not shown] | T/C (dose: 200.0 mg/kg/injection, schedule: Q01DX001 (ip), vehicle: DMSO): 106 % of control [survivor count not shown]

Reference: PubChem BioAssay AID248 (DTP/NCI, 2004)
